For 2 molecules, binding results are on record in publication PMC3115956.

No constants are given. Whether binding was seen depends on the method and setting. In cells and extracts the contact can be indirect. Some binding calls cover weakened binding; strength is not graded here. For some assays here: Tags and fused reporters may be left off the sequences shown.

For assay [1], the target named is T1, SLXL1 (native, testis) (mouse (endogenous in testis)) (UniProt K9J714).
T1 sequence: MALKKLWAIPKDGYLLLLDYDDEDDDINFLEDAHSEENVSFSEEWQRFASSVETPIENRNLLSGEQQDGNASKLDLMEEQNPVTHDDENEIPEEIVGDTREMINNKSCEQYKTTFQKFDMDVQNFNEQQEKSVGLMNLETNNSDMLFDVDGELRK
In words: co-IP; total mouse testis lysate incubated with anti-SLXL1 1-155aa antiserum or rabbit preimmune serum for 2 h at 4°C, then protein A agarose beads overnight at 4°C, washed 5 times in PBS; blots with anti-SLXL1 65-155aa and anti-DKKL1.

For a further assay, the target named is T2, Flag-DKKL1 (mouse) (UniProt Q9QZL9).
T2 sequence: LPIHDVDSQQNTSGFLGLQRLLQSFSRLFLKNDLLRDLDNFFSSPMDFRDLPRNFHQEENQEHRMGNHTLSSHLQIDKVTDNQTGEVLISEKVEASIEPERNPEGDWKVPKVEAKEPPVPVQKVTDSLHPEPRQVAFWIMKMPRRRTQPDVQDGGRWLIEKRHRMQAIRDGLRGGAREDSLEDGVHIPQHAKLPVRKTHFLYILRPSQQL
In words: co-IP; SLXL1-GFP and Flag-DKKL1 co-transfected into HEK293T; RIPA lysate 48 h after transfection incubated with Flag-conjugated sepharose beads overnight at 4°C, washed 5 times; blots with anti-GFP and anti-FLAG; control: empty pFlag-CMV-4 with Slxl1-GFP.

B1: DKKL1 (native, testis) (protein, UniProt Q9QZL9 21-230)
chain: LPIHDVDSQQNTSGFLGLQRLLQSFSRLFLKNDLLRDLDNFFSSPMDFRDLPRNFHQEENQEHRMGNHTLSSHLQIDKVTDNQTGEVLISEKVEASIEPERNPEGDWKVPKVEAKEPPVPVQKVTDSLHPEPRQVAFWIMKMPRRRTQPDVQDGGRWLIEKRHRMQAIRDGLRGGAREDSLEDGVHIPQHAKLPVRKTHFLYILRPSQQL
Regarding B1, the binding entry in assay [1] is on record as “binds”.

B2: SLXL1-GFP (protein, UniProt K9J714 1-155)
chain: MALKKLWAIPKDGYLLLLDYDDEDDDINFLEDAHSEENVSFSEEWQRFASSVETPIENRNLLSGEQQDGNASKLDLMEEQNPVTHDDENEIPEEIVGDTREMINNKSCEQYKTTFQKFDMDVQNFNEQQEKSVGLMNLETNNSDMLFDVDGELRK
Turning to B2, in the assay with Flag-DKKL1 (mouse), the binding result is listed as “binds”.
